Library screen at single concentrations

T. brucei: 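Whole-parasite assay of Trypanosoma brucei over 72 hours; the read-out is not stated. Concentration: 30 µM. Direction is inferred from retests: higher values go with stronger inhibition. Values scatter widely below zero; nearly all retest evidence comes from the higher of the two concentrations used. Of about 64,000 compounds tested this way, about 940 (1.5%) reached 50% or more in at least one test.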
Toxoplasma: 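Assay of Toxoplasma gondii numbers, read through their beta-galactosidase reporter with a colour substrate. Compounds at 10 µM. The record gives no direction; the compounds picked for IC50 retests had high values, so higher reads as fewer parasites. Size under these conditions: about 67,000 compounds, about 260 of them at 50% or above in at least one test.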
Leishmania in macrophages: 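Cell assay of Leishmania donovani living inside macrophages; the read-out is not stated. Compounds at 30 µM. Direction is inferred from retests: higher values go with stronger inhibition. Size under these conditions: about 69,000 compounds, about 1,000 of them at 50% or above in at least one test.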

Results are given as percent effect. The record does not define 0% and 100%; most values in the screen are far below 50% and negative numbers occur (in some assays of this library far below -100). Compounds were drawn at random from those tested, without regard to their results. Two or more numbers in one place are separate tests of the same structure; such repeats can differ widely. A dash means the value is not listed here; it may have been measured.

compound	T. brucei	Toxoplasma	Leishmania in macrophages
CSc1c[nH]nc1NS(=O)(=O)c1ccc(C)c(C)c1	-2.864	-7.246	10.24
Cc1cc(CN(C)C(=O)C2CCC(=O)N(CC3CCCCC3)C2)n[nH]1 (stereo not given)	-7.976	3.365	5.637
Cc1ccc(-c2noc(CN3CCCC(Cn4cncn4)C3)n2)cc1 (stereo not given)	-	6.096	25.75
CCN1CCN(C2CCN(Cc3noc(C)n3)CC2)C1=O	-6.711	-	4.685
CNS(=O)(=O)c1ccc(C(=O)N2CCCC2c2ccccc2)o1 (stereo not given)	30	0.06277	27.47
O=C(O)C(F)(F)F.O=C(c1cnccn1)N1CCCC2(COCCN(CC3CC3)C2)C1 (stereo not given)	0.3488	-37.33	-2.069
CC1(C)OCC2(CO1)CN(C(=O)c1ccccc1Br)C2	8.252	1.931	-1.603 & -9.595
CC1CCN(C(=O)CN2CCC(c3n[nH]c(C4CC4)n3)CC2)CC1	-21.92	-	16.2
Cc1cnn(CCC(=O)N2CCCN(c3ccccc3C#N)CC2)c1	10.42	-13.41	7.518
Cc1ccc(CNCC2CCN(CC(O)c3ccccc3)CC2)o1 (stereo not given)	70.09	-28.09	53.67
FC(F)COc1ccccc1NCc1nnsc1Cl	-4.922	2.045	8.355
Cc1nnsc1CNC(=O)CSCc1ccccc1Cl	-46.26	-7.234	-49.61
COc1cccc(OC2CN(C(=O)CCn3cnc4ccccc43)C2)c1	-59.58	-23.88	-6.022
[H][C@@]12CCN(C(=O)Cc3ccco3)C[C@]1([H])OCCNC2=O	-24.48	-26.29	25.47
Cn1c(=O)oc2cc(Nc3nccnc3C#N)ccc21	-6.58	-1.429	-1.665
CO[C@@H]1CN(c2ccccc2)S(=O)(=O)[C@@]12CCN(C)C2	-21.91	19.04	17.82
CCOc1ccccc1CNC1CCCN(Cc2noc(C)n2)C1 (stereo not given)	-	9.504	34.57
CCOCc1cnc2n1CCN(Cc1cccs1)C2C.O=C(O)C(F)(F)F (stereo not given)	-28.35	-7.113	-14.25
Cc1cc(O)nc(C2CCCNC2)n1.Cl (stereo not given)	-	0.9044	41.56
O=C(NC[C@H]1CCCC[C@H]1O)c1ccc2nc(-c3ccco3)[nH]c2c1	17.46	-4.598	13.33
[H][C@]12CC[C@]([H])(CN(C(=O)Cc3sc(C)nc3C)C1)N(CC1CC1)C2	-6.861	-0.8696	-8.303
Cc1ccc(-c2noc(C(C)(C)NS(C)(=O)=O)n2)cc1F	-6.131	-11.69	-4.432
Clc1ccc(N2CCC(C3CCN(Cc4cccnc4)CC3)C2)nc1 (stereo not given)	-35.22	-3.196	-2.762
Cc1cc(C(=O)N2CCC(c3nccn3CCCN(C)C)CC2)no1	-74.1	-2.956	39.05
O[C@H]1CCCC[C@@H]1N1CCN(CCCc2ccc3c(c2)OCO3)CC1	42.3	-47.91	14.1
Nc1nc(CCCNC(=O)c2ccccc2C2CCNC2)cs1 (stereo not given)	-64.17	-35.24	11.72
[H][C@@]12CN(C(=O)NC3CC3)C[C@]1([H])C(=O)N(Cc1cccc(F)c1)C2	59.25	-11.94	11.29
Cn1c(=O)n(C)c2cc(NS(=O)(=O)Cc3cccc(F)c3)ccc21	0.4892	4.712	14.42
CC(=O)N1CCC2(CCN(CC3CCCCC3)C2)CC1	-3.899	-27.84	24.41
O=C(N1CCCC1)N1CCN(Cc2cccnc2)c2ncccc2C1.O=C(O)C(F)(F)F.O=C(O)C(F)(F)F	-7.352	4.099	-4.213
O=C(c1cc(C2CC2)on1)N1CCCC(n2cccn2)C1 (stereo not given)	-4.221	10.64	-40.71
CNC(=O)CN1CCOCC2(C1)CN(C(=O)CC(C)C)CCO2.O=C(O)C(F)(F)F (stereo not given)	-16.33	-7.574	52.6
CCOc1c(Br)cc(CNC(C)c2nnc3n2CCC3)cc1OC (stereo not given)	-	-10.55	-18.66
Cc1nnc(CN2CCCC2c2ccsc2)o1 (stereo not given)	-40.61	26.55	4.182
CCNC(=O)c1cccc(CNC(=O)c2cnc(C(C)(C)C)s2)c1	6.706	-3.081	19.4
N#Cc1c(N)nc2c(c1-c1c[nH]nc1C1CCCCC1)CNCC2	-117.3	-25.33	18.75
Cn1c(=O)c2sccc2n(CC(=O)Nc2cccc(Cl)c2)c1=O	-	26.87	-2.685
Cc1cnn(CCNCc2csc(C)n2)c1	-52.24	0.8811	0.09919
CCc1ncc(C(=O)N(C)C2Cc3ccccc3C2)cn1	-32.85	0.2647	-9.85
Cc1noc2nc(C3CCN(Cc4ccccn4)CC3)cc(C(F)F)c12	-5.404	19.35	-8.268 & -6.439
CCC(O)CN(Cc1ccccc1)S(=O)(=O)c1cnc(C)s1 (stereo not given)	-59.18	1.983	-11.55
Cc1cnn(CC2CN(CC(=O)NCc3ccco3)CCO2)c1 (stereo not given)	-8.949	-29.89	13.97
Cc1ccc(OCCN2CCN(Cc3cnn(CCO)c3)CC2)cc1	-	17.63	33.53
c1cc(-c2ccc3c(c2)CCC32CCN(c3nncs3)CC2)co1	-7.28	10.06	-6.512
COCCN1CCN(Cc2cnc(C3(C)CCCCO3)nc2)CC1 (stereo not given)	-16.71	3.206	8.963
CCC1=NC2(CCC(C(=O)Nc3ccc(F)cc3)CC2)C(=O)N1C (stereo not given)	-40.91	15.12	5.998
Cc1cc(C(=O)N2CCC(NC(=O)c3cccnc3)CC2)c(C)o1	5.347	1.2	12.13
CCN(CCNS(=O)(=O)N1CCOCC1)C(=O)OC(C)(C)C	-11.52	51.95	11.39
CCSc1ccccc1C(=O)NCCN1CCC(c2cccs2)CC1	2.206	25.15	9.166
Cc1cnc2c(c1NCc1cccs1)c(=O)n(C)c(=O)n2C	-31.11	-5.585	14.5
CC(Cn1ccnc1)NC(=O)N1CCN(Cc2ccco2)CC1 (stereo not given)	-4.019	20.26	15.74
COCCN(C)C(=O)c1nc2c(s1)CCCN2C	-82.76	-1.915	0.1683
CCOc1ccc(NC(C)C(=O)Nc2cc(C)no2)cc1 (stereo not given)	-5.587	3.978	20.85
O=C(NCC(O)(c1ccco1)C1CC1)c1ccccc1F (stereo not given)	-12.17	-7.784	-8.312
CCc1ccc(-c2c(C)c(-c3cnn(C)c3)nc(N)c2C#N)o1	-155.9	2.036	-14.86
CSCC(=O)Nc1ncn(Cc2cccc(Br)c2)n1	9.451	8.17	18.55
COC(=O)c1cccc(S(=O)(=O)NC(=O)CC2CCCC2)c1	-114.7	0.5394	-7.206
C[C@@]1(O)CCN(Cc2cc[nH]n2)C[C@H]1Oc1cccc(F)c1	13.98	-1.35	2.939 & 17.1
CC(C)CN1CCN(C(=O)c2cc(=O)c3ccccc3[nH]2)CC1	25.26	4.489	20.85
CNC(=O)c1cnc2n1CCN(Cc1cccnc1OC)C2	-29.55	4.124	3.659
COc1ccc(OC)c(C2CCN(C3CCN(C(C)=O)CC3)C2)c1 (stereo not given)	-37.99	3.692	8.856
CCc1nccn1C1CCCN(C(=O)c2cnc[nH]2)C1 (stereo not given)	36.65	5.051	-23.16
Cc1cc(NCCSc2nccn2C)n2ncnc2n1	-38.77	26.77	30.76
O=C(NC1CC1)c1cc(Cl)ccc1-n1cnnn1	7.277	2.483	16.15
Cc1cnn(CCNC(C)c2nnc(-c3ccccc3)o2)c1 (stereo not given)	-20.96	1.83	5.446
Cc1noc(C)c1CN(C)CCC(=O)N1CCc2sccc2C1	-14.89	-2.031	-22.94
O=S(=O)(NCc1cn2ccccc2n1)N1CCOCC1	-29.08	-21.86	8.759
[H][C@@]12CCCO[C@]1([H])[C@H](NC(=O)c1cnccn1)CN2c1ncccn1	40.34	8.44	-2.762
COCC1CCN(S(=O)(=O)N2C[C@@H](C)[C@@](C)(O)C2)CC1	-12.27	-1.193	-18.8
COCCCN1C(=O)CC(N2CCN(c3ccc(F)cc3)CC2)C1=O (stereo not given)	-20.83	15.18	24.23
COCCN1CCC(NC(=O)Nc2cccc(F)c2)C1 (stereo not given)	-69.37	-25.24	33.58
Cc1cnccc1CN1CC[C@@](C)(O)[C@H](Oc2cccc(F)c2)C1	-6.654	18.18	8.08 & 13.62
COC(=O)C(C)(C)NC(=O)c1cnc(C(C)(C)C)s1	-43.54	9.732	19.78
CNC(=O)C1(CCCc2ccccn2)CCN1Cc1coc(C)n1 (stereo not given)	-18.64	20.04	-5.162
CN(C)C(=O)c1ccc(OC2CCCC2)cc1	-28.39	-13.18	7.715

Source: ChEMBL document CHEMBL3988442, “University of Dundee, Small-Polar-MMV Screening Library” (2021).